In patent publication US20160271230A1 (UNIVERSITY HEALTH NETWORK, published 2016) one finds binding data, which are given here for two molecules.

In assay [1] the target is T1, His-tagged 6FNIII-domain of Neogenin (Gallus gallus, UniProt Q90610 429-1036).
T1 construct: also called His-6FNIII; His-FNIII; not shown: His tag
T1 sequence: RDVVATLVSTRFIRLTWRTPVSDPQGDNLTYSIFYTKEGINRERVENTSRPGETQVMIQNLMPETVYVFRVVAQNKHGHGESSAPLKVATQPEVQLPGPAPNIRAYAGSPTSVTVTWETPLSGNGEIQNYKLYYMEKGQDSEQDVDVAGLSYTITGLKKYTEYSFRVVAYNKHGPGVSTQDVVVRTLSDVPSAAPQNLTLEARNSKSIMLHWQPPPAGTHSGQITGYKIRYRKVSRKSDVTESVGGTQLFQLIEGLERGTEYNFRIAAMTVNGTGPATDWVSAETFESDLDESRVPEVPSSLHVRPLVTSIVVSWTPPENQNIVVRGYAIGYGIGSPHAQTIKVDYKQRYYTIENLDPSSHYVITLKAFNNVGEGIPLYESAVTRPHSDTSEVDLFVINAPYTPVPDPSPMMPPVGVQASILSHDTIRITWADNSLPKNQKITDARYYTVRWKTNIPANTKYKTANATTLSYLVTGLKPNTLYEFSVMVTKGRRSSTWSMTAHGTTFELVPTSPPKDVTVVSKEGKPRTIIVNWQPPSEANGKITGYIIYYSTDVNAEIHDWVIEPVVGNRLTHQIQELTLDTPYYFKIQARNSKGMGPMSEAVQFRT
Nature of the assay: pull-down with peptide-coated beads, anti-His Western blot (FIG. 2B).

Assay [2] concerns the target T1, His-tagged 6FNIII-domain of Neogenin. As to the kind of experiment: pull-down with peptide-coated beads (FIG. 2B).
The target in assay [3] is T2, His-tagged 4Ig-domain of Neogenin (Gallus gallus, UniProt Q90610 1-383).
T2 construct: Secreted from transfected cells, purified on Ni-NTA; also called His-4Ig; Neogenin-4Ig; not shown: 6-His tag at the N-terminus; myc and 6-His tags of the pSectag 2B vector at the C-terminus
T2 sequence: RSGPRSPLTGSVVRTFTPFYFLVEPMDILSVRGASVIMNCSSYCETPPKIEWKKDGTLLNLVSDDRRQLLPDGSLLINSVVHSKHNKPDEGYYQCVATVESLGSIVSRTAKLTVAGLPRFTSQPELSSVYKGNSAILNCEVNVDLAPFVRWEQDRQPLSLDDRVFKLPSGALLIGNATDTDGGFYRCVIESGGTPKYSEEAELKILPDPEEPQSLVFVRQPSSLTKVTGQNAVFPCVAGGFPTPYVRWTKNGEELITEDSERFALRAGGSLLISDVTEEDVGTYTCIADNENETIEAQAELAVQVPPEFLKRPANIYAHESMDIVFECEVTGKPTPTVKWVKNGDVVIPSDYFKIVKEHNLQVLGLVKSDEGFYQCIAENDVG
Nature of the assay: pull-down with peptide-coated beads, anti-His Western blot (FIG. 2B). In general terms: A western blot detects proteins with antibodies after separation by electrophoresis.

In assay [4] the target is T2, His-tagged 4Ig-domain of Neogenin. As to the kind of experiment: pull-down with peptide-coated beads (FIG. 2B).

No constants are given. Whether binding was seen depends on the method and setting. In cells and extracts the contact can be indirect. Some binding calls cover weakened binding; strength is not graded here. Sequences can lack the tags named with a protein.

B1: N-inh peptide (amino acids 77-113 of RGMa), His-tagged (peptide)
peptide: GDLAYHSAVHGIDDLMVQHNCSKDGPTSQPRLRTLPP
notes: not shown: 6-His tag at the N-terminus; myc tag and 6-His tag at the C-terminus
As to B1, the binding entry in assay [1] and in assay [2] was “binds” in each case.

B2: N-Raft peptide (amino acids 28-73 of RGMa), His-tagged (peptide)
peptide: SPCKILKCNSEFWAATSGSHHLGAEETPEFCTALRAYAHCTRRTAR
notes: also called N-RGMa^28-73; N-RGMa28-73; not shown: 6-His tag at the N-terminus
On to B2, for which the binding entry in assay [3] and in assay [4] was “binds” in each case.
